From US10905775B2, “Particulate constructs for release of active agents” (CELATOR PHARMACEUTICALS, INC., priority 2004, dated 2021)
At least one structure is not confirmed: it was looked up by name or label, or the drawing left a doubt.

Experiments:
[1] = Nanoparticle size by dynamic light scattering (DLS); assay type: physicochemical; conditions: for polydispersity index / width / average radius: pH 5.5 buffer
Protocol: A 300 mM sucrose solution is prepared, loaded into a 100 ml gas tight syringe, and fixed on a second syringe pump. […] At the mixer outlet, two samples are collected. The first sample is collected in a scintillation vial and analyzed for particle size by dynamic light scattering (DLS), and the second sample is collected in low temperature freezer vials, and freeze-dried. The freeze-drying cycle is the following: −40° C. overnight, −10° C. for a day, 4° C. for a day, and then room temperature for one day. […] The samples are checked visually for crystals/aggregates formation. […] A freeze-dried sample is dissolved in methanol to dissociate the nanoparticles, and the solution is tested for the presence of THF using CGC. Particle size may be determined by DLS. […] The sample collected in a scintillation vial from the mixer effluent is inserted into the DLS sample cell containing decalin scintillation fluid (maintained at 25° C. using a temperature bath), and left to equilibrate to the cell temperature. The run duration is 60 seconds, replicated three times. The particle size expressed as the hydrodynamic diameter is obtained using an ALV 5000 correlator and a second order cumulant fit.

[2] = Visual check / description of nanoparticle samples for crystals, aggregates, stability; assay type: physicochemical; conditions: control: unconjugated estradiol with mPEG-PCL (5,000-2,900) 1:1, THF against water, CIJ mixer
Protocol: A 300 mM sucrose solution is prepared, loaded into a 100 ml gas tight syringe, and fixed on a second syringe pump. […] At the mixer outlet, two samples are collected. The first sample is collected in a scintillation vial and analyzed for particle size by dynamic light scattering (DLS), and the second sample is collected in low temperature freezer vials, and freeze-dried. The freeze-drying cycle is the following: −40° C. overnight, −10° C. for a day, 4° C. for a day, and then room temperature for one day. […] The samples are checked visually for crystals/aggregates formation. […] A freeze-dried sample is dissolved in methanol to dissociate the nanoparticles, and the solution is tested for the presence of THF using CGC.

[3] = 2 hours after the mixing, rifampicin 12 wt % with PS-b-PEO (1k-3k)
[4] = 4 hours after mixing, rifampicin 12 wt % with PS-b-PEO (1k-3k)

CO[C@H]1/C=C/O[C@@]2(C)Oc3c(C)c(O)c4c(O)c(c(/C=N/N5CCN(C)CC5)c(O)c4c3C2=O)NC(=O)/C(C)=C\C=C\[C@H](C)[C@H](O)[C@@H](C)[C@@H](O)[C@@H](C)[C@H](OC(C)=O)[C@@H]1C [rifampicin] showed a polydispersity index [1, 3] of 0.402, a width [1, 3] of 108.09 nm and an average radius ([1]; 2 hours after the mixing, unconjugated rifampicin 12 wt % with PS-b-PEO (1k-3k) 2 wt % in DMF, four stream vortex mixer) of 170.69 nm. For the same compound, the average radius [1, 4] was 532.68 nm, the polydispersity index [1, 4] was 0.397 and the width [1, 4] was 335.68 nm. For the same compound, the “nanoparticles detected by dynamic light scattering” value ([1]; unconjugated rifampicin with PEG-b-PCL (5k-5k), initial concentration below 12 wt % in DMF, clear red solutions) was “no nanoparticles above the size of approximately 10 nm”.
With C[C@]12CC[C@@H]3c4ccc(O)cc4CC[C@H]3[C@@H]1CC[C@@H]2O [Estradiol] the “time after particle formation at which nanoparticles were unstable (aggregates observed)” value [2] was under 30 min.
